Test results from patent US5833994.
Results from cells or extracts need not show a direct contact.

Chains of the proteins cited; added tags and fusions are not shown. A line that says so, or that is headed by a name, gives the form on record, which may keep a tag or linker.
Ah receptor/ARNT heterodimer (TCDD-transformed, liver cytosol) (Cavia porcellus (guinea pig)), one chain, as listed by the source, chain 1 of 2: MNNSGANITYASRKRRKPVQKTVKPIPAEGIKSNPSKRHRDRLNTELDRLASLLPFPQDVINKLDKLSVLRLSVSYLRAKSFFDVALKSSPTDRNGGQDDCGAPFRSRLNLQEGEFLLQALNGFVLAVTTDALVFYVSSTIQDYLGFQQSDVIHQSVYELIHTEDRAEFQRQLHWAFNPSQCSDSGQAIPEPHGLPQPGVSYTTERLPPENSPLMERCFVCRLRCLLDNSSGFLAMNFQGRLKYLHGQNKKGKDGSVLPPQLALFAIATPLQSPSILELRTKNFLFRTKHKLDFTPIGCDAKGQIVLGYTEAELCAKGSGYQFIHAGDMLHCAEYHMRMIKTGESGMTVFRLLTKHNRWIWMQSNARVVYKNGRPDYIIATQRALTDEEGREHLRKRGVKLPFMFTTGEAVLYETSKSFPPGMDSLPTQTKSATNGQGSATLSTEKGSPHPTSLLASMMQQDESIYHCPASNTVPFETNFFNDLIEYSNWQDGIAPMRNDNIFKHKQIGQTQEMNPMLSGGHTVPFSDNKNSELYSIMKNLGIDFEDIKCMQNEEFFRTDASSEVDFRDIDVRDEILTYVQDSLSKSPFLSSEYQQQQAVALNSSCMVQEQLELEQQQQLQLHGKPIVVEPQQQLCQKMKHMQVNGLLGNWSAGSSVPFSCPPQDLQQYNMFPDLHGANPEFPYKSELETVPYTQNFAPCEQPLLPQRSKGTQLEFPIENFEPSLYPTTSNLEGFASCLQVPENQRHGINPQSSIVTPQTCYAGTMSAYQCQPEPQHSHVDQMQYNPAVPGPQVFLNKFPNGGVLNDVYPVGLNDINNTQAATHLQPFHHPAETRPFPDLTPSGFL
Ah receptor/ARNT heterodimer (TCDD-transformed, liver cytosol) (Cavia porcellus (guinea pig)), one chain, as listed by the source, chain 2 of 2: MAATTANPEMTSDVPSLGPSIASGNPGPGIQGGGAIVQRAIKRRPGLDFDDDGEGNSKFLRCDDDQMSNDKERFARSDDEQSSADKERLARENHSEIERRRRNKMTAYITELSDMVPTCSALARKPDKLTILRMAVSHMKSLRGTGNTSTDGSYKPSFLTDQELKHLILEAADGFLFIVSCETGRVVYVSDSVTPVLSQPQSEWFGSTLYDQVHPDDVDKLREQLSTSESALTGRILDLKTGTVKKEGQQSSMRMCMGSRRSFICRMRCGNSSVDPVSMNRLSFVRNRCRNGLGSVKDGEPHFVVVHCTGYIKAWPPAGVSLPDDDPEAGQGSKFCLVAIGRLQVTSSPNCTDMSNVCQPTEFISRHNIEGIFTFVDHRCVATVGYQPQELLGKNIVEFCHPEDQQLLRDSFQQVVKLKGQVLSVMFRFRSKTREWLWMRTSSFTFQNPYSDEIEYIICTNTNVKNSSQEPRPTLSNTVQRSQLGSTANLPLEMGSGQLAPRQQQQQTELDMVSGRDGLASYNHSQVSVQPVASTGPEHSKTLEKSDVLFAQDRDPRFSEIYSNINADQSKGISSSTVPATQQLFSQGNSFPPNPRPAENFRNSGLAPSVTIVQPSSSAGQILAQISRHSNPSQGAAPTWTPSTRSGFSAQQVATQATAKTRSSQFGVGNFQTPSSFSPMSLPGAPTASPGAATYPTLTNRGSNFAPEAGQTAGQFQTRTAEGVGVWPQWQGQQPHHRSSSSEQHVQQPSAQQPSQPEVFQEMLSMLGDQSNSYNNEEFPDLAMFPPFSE

Tested on: Ah receptor/ARNT heterodimer (TCDD-transformed, liver cytosol) (Cavia porcellus (guinea pig))
Assay: binding assay
Conditions: Example 2, 6 and 7; protein in an extract; label: 5'-biotin on SEQ:2 strand

“GATCCGGAGTTGCGTGAGAAGAGCCA (double strand) [DRE (DRE-D / biotin-ERD duplex)]”: binds.
